# Literature values as cited in patent publication US20130202706A1 (DRUGGABILITY TECHNOLOGIES IP HOLDCO (JERSEY) LTD., priority 2010, published 2013).
smiles,measurement,setting,value
CC(C)c1c(C(=O)Nc2ccccc2)c(-c2ccccc2)c(-c2ccc(F)cc2)n1CC[C@@H](O)C[C@@H](O)CC(=O)O [Atorvastatin],lower plasma concentrations (Cmax and AUC) following evening administration compared with morning,evening versus morning,approximately 30%
same,decrease of extent of drug absorption by food (AUC),with food,~9%
same,decrease of rate of drug absorption by food (Cmax),with food,approximately 25%
